Results reported in the supplement of paper PMC12067093, “Discovery and optimisation of a covalent ligand for TRIM25 and its application to targeted protein ubiquitination” (Chemical Science, 2025).
The other results are listed elsewhere or left out.

By UniProt entry, the sequences of proteins in these tests, tags left out. Where a name states a change or a piece, a line headed by the entry shows the natural chain unless it says otherwise.
UniProt Q9NQR4: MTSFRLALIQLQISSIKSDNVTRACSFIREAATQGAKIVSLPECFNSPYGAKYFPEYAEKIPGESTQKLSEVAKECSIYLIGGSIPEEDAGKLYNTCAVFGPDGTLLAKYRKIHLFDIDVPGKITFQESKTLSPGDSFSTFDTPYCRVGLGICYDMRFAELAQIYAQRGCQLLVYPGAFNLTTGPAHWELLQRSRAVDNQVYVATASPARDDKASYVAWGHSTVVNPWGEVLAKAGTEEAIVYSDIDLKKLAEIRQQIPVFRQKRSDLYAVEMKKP
UniProt O75323: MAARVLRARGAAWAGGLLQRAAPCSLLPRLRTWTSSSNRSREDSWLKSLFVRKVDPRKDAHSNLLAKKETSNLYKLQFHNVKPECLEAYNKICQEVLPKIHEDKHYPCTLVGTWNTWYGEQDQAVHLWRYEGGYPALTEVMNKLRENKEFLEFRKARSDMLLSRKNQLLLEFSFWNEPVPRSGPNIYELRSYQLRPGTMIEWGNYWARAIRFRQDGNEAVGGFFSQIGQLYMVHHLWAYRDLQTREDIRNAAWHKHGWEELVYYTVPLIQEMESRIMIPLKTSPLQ
UniProt Q12986: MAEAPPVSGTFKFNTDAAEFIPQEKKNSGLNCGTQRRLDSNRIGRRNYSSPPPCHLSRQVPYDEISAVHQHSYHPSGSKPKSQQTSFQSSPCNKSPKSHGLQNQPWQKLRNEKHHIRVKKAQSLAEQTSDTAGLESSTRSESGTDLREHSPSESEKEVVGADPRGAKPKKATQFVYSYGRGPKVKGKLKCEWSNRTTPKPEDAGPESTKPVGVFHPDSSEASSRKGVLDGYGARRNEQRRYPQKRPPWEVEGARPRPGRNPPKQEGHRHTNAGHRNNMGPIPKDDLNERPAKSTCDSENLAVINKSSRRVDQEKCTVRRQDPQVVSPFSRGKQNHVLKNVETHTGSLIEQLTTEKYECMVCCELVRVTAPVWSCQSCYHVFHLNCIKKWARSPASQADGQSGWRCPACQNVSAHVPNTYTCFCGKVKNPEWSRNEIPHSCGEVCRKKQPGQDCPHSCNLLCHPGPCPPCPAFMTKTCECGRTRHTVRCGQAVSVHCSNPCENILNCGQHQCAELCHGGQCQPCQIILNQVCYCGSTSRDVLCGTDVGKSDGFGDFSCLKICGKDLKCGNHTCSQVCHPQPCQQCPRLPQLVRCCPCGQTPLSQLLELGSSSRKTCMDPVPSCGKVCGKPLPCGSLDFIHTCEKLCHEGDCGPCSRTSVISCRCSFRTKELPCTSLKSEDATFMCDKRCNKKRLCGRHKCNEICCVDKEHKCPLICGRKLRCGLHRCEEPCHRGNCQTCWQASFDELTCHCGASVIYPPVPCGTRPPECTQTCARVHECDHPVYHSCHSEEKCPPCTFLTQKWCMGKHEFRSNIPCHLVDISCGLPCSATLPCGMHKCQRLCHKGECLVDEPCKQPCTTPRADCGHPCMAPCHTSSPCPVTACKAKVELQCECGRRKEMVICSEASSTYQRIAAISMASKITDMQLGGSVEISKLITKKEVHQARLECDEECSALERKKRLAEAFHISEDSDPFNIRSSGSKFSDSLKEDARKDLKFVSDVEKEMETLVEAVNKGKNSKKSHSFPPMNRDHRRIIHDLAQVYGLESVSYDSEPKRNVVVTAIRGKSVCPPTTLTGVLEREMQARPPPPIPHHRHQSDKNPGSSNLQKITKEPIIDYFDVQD
UniProt Q8N4C6: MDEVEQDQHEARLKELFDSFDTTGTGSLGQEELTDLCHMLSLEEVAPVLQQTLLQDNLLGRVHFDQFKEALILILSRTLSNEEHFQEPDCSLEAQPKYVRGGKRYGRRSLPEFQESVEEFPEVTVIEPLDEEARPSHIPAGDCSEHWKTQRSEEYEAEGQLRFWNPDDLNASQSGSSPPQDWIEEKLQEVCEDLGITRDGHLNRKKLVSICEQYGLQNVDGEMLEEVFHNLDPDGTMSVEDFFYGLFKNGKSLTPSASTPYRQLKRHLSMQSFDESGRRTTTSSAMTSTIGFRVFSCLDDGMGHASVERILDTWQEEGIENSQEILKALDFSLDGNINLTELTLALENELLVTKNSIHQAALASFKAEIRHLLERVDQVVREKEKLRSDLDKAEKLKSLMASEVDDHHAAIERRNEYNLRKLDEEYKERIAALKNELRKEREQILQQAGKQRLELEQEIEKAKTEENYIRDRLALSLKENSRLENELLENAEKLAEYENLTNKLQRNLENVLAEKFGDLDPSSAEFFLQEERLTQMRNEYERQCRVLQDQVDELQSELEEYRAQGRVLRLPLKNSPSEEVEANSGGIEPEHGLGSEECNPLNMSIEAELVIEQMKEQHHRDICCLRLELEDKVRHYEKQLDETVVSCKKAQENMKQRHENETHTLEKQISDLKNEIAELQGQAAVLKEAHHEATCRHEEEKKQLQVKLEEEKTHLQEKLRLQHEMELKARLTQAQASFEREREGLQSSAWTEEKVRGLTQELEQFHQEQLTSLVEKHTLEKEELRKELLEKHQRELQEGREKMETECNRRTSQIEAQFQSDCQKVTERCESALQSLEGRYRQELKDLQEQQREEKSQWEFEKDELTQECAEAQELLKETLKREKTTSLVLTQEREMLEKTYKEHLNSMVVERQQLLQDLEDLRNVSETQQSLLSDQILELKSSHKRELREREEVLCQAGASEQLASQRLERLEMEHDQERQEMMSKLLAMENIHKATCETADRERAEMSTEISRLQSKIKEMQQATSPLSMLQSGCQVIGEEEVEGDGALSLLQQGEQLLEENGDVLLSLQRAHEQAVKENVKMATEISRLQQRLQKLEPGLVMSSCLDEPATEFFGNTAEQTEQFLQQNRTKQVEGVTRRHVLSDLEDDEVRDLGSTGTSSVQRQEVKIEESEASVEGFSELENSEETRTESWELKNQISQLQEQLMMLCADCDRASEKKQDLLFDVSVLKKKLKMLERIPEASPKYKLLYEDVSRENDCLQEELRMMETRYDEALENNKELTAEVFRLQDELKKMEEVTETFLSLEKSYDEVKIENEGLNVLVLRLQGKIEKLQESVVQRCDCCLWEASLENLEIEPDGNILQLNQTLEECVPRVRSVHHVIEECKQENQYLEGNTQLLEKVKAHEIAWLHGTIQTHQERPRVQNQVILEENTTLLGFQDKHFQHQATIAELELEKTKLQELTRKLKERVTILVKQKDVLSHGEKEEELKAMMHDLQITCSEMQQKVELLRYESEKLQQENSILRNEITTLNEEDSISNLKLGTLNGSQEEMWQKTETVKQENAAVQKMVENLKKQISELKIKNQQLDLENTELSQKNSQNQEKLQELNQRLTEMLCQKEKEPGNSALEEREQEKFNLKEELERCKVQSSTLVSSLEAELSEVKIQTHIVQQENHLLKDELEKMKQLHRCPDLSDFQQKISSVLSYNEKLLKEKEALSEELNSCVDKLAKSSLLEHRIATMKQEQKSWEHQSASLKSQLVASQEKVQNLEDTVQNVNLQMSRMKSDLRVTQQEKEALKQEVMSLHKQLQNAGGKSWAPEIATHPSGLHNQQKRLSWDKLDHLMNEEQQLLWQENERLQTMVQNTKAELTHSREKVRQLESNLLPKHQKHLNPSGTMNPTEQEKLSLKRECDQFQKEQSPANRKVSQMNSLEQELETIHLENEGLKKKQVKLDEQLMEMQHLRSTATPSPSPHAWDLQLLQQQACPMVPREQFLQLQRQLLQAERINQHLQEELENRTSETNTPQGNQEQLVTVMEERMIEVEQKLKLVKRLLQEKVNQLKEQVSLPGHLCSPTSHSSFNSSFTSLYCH
UniProt P08651, whole entry, looked up: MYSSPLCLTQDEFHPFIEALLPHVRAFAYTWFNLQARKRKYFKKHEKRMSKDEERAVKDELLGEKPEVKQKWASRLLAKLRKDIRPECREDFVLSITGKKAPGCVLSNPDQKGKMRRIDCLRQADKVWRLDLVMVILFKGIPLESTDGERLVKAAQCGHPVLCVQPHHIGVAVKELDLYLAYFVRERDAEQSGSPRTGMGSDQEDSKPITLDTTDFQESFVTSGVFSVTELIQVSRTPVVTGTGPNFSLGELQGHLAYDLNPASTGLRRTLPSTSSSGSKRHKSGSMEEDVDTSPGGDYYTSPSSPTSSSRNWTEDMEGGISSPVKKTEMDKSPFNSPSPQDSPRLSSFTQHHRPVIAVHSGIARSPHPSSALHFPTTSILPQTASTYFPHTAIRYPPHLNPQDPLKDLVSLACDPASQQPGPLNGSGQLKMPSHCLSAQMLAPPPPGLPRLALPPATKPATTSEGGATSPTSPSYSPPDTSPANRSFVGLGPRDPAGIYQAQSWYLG
UniProt O00221: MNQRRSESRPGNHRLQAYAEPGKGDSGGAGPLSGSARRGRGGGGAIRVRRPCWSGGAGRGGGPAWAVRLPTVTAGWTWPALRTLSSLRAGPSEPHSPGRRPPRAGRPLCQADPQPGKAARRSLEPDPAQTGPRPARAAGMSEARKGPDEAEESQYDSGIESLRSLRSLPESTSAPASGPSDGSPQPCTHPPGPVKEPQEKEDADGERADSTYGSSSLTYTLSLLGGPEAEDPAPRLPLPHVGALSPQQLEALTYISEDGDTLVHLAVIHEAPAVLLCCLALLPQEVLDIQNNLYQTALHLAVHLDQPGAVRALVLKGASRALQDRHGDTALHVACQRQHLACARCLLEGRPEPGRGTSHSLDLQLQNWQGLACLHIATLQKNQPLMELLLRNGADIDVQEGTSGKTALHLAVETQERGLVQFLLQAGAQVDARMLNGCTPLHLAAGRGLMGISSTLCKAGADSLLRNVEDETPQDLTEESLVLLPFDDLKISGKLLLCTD
UniProt Q9NX24: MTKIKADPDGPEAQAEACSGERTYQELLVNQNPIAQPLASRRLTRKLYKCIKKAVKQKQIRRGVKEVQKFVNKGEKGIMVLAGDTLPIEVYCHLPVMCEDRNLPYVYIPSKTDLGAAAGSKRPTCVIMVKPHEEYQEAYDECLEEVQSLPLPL
UniProt Q86X76: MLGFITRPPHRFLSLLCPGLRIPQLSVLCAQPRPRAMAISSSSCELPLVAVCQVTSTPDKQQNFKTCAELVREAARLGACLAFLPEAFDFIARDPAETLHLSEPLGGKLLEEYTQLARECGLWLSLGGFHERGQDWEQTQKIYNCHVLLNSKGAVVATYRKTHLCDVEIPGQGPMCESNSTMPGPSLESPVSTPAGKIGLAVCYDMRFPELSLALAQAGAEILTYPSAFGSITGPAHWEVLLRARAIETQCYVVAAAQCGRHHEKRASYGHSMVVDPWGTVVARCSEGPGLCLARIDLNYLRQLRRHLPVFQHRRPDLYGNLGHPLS
UniProt Q9UN36: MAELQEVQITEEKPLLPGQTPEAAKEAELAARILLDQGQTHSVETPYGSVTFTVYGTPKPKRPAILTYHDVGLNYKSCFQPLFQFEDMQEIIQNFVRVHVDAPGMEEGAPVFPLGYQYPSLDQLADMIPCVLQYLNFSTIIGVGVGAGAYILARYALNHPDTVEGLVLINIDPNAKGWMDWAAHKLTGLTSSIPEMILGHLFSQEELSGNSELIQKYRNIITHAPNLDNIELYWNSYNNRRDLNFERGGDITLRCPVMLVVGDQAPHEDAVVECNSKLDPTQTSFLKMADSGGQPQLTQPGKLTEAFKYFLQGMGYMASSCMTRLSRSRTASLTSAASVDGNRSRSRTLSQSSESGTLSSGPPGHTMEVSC
UniProt O95644: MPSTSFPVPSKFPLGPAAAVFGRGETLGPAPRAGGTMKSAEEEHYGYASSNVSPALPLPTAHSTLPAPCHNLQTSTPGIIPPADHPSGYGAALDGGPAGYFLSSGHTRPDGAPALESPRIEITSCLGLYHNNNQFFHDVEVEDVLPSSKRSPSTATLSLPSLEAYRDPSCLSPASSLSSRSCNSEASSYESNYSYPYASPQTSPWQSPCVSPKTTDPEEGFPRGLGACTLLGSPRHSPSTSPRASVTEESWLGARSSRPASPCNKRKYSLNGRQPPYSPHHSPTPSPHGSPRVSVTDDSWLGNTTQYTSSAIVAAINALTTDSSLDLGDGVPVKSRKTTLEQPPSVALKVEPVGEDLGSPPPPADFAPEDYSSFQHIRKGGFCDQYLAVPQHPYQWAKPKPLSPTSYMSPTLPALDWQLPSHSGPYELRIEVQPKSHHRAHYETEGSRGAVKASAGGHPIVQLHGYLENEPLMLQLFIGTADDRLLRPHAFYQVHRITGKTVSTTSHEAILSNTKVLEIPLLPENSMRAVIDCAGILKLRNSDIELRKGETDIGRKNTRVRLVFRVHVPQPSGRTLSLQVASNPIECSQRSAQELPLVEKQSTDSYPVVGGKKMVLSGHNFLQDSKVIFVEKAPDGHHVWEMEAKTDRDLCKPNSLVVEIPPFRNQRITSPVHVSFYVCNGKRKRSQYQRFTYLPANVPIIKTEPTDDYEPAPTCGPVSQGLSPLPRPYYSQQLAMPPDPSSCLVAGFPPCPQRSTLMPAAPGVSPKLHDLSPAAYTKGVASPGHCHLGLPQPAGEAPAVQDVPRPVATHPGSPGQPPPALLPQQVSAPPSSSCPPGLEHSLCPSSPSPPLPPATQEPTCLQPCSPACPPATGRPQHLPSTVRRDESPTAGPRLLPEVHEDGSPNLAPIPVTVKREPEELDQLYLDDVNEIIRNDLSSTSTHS

Compound: CC1Cc2ccccc2N1C(=O)C1CCCN(C1)C(=O)CCl (mixture of isomers) [TRIM25 ligand 11 (diastereomer mixture)]
Test: probe-labelled cysteine peptide fold change vs DMSO (competition) (log2 fold change); higher = less target engagement (more negative = stronger competition)
Conditions: THP-1, incubation time: 4 h
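Note: competitive chemoproteomic profiling in live THP-1 cells with an iodoacetamide desthiobiotin (IA-DTB) probe, comparing probe-labelled peptide intensities in compound-treated cells against DMSO-treated controls.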

| Target | probe-labelled cysteine peptide fold change (10 µM) | probe-labelled cysteine peptide fold change (50 µM) |
| --- | --- | --- |
| NDRG1_Q92597_49_GETITGLLQEFDVQEQDIETLHGSVHVTLCGTPK (UniProt Q92597) | 0.173 | -0.0889 |
| NCKIPSD_Q9NZQ3_412+429_CYLEELLHILTDADPEVCKK (UniProt Q9NZQ3) | 0.0278 | 0.0531 |
| NIT2_Q9NQR4_44_IVSLPECFNSPYGAK (UniProt Q9NQR4) | -0.0155 | 0.0434 |
| NDUFV1_P49821_382_HESCGQCTPCR (UniProt P49821) | 0.251 | -0.135 |
| NECAP1_Q8NC96_12_ATELEYESVLCVKPDVSVYR (UniProt Q8NC96) | 0.0885 | -0.0381 |
| NDC1_Q9BTX1_9_ATAVSRPCAGR (UniProt Q9BTX1) | 0.00914 | -0.136 |
| NIPSNAP2_O75323_108_HYPCTLVGTWNTWYGEQDQAVHLWR (UniProt O75323) | 0.25 | 0.102 |
| NFX1_Q12986_377_VTAPVWSCQSCYHVFHLNCIK (UniProt Q12986) | 0.0626 | 0.0766 |
| NDRG3_Q9UGV2_30_NFQDFDCQEHDIETTHGVVHVTIR (UniProt Q9UGV2) | 0.0929 | 0.0549 |
| NIN_Q8N4C6_1502_AMMHDLQITCSEMQQK (UniProt Q8N4C6) | -0.0439 | 0.0661 |
| NEIL3_Q8TAT5_259_RPNCGQCHCR (UniProt Q8TAT5) | 0.0358 | 0.0612 |
| NDUFA8_P51970_88_HCAEPFTEYWTCIDYTGQQLFR (UniProt P51970) | 0.0824 | 0.245 |
| NFIC_P08651_104_KAPGCVLSNPDQK (UniProt P08651) | -0.0478 | -0.0863 |
| NCEH1_Q6PIU2_345_TYILTCEHDVLRDDGIMYAK (UniProt Q6PIU2) | 0.0222 | 0.0537 |
| NFKBIE_O00221_345_CLLEGRPEPGR (UniProt O00221) | -0.0407 | 0.153 |
| NHP2_Q9NX24_98_GIMVLAGDTLPIEVYCHLPVMCEDR (UniProt Q9NX24) | 0.0292 | -0.216 |
| NDUFS1_P28331_727_AVTEGAQAVEEPSIC (UniProt P28331) | 0.0055 | -0.0365 |
| NF1_P21359_1486_FFLDIASDCPTSDAVNHSLSFISDGNVLALHR (UniProt P21359) | 0.157 | 0.0357 |
| NEK1_Q96PY6_276_FLSPQLIAEEFCLK (UniProt Q96PY6) | 0.0381 | 0.161 |
| NIN_Q8N4C6_1261_ENDCLQEELR (UniProt Q8N4C6) | 0.116 | 0.0579 |
| NFX1_Q12986_615_TCMDPVPSCGK (UniProt Q12986) | -0.242 | -0.238 |

| Target | probe-labelled cysteine peptide fold change (10 µM) | probe-labelled cysteine peptide fold change (50 µM) |
| --- | --- | --- |
| NIPBL_Q6KC79_52_IAEEVNCLLACRDDNLVSQLVHSLNQVSTDHIELK (UniProt Q6KC79) | 0.000251 | -0.297 |
| NEK6_Q9HC98_258_MNLFSLCQK (UniProt Q9HC98) | 0.202 | 0.258 |
| NISCH_Q9Y2I1_403_SIGSLPCLEHVSLLNNPLSIIPDYR (UniProt Q9Y2I1) | 0.0605 | -0.128 |
| NIPBL_Q6KC79_304_GSRPPLILQSQSLPCSSPR (UniProt Q6KC79) | 0.204 | 0.00224 |
| NCK1_P16333_340_ETVYCIGQR (UniProt P16333) | 0.0423 | 0.105 |
| NCOA7_Q8NI08_487_GALDLETCEK (UniProt Q8NI08) | -0.182 | -0.181 |
| NELFB_Q8WX92_235_NVHYCTLR (UniProt Q8WX92) | 0.148 | 0.179 |
| NCS1_P62166_38_DCPSGQLDAAGFQK (UniProt P62166) | 0.121 | 0.217 |
| NFX1_Q12986_479_TCECGR (UniProt Q12986) | -0.0168 | 0.212 |
| NDUFA10_O95299_67_VITVDGNICTGK (UniProt O95299) | -0.075 | 0.0544 |
| NIT1_Q86X76_145_IYNCHVLLNSK (UniProt Q86X76) | 0.0692 | 0.166 |
| NDRG2_Q9UN36_274_CPVMLVVGDQAPHEDAVVECNSK (UniProt Q9UN36) | 0.0756 | -0.0733 |
| NDUFB7_P17568_80_DSFPNFLACK (UniProt P17568) | -0.0442 | 0.0837 |
| NIT2_Q9NQR4_170_GCQLLVYPGAFNLTTGPAHWELLQR (UniProt Q9NQR4) | -0.2 | -0.0477 |
| NCOA3_Q9Y6Q9_716_DTSSITSCGDGNVVK (UniProt Q9Y6Q9) | -0.118 | -0.309 |
| NDUFV1_P49821_206_GAGAYICGEETALIESIEGK (UniProt P49821) | -0.00957 | 0.00598 |
| NGLY1_Q96IV0_283_EVEDHYCDACQFSNRFPR (UniProt Q96IV0) | -0.198 | 0.05 |
| NDUFS6_O75380_87_VIACDGGGGALGHPK (UniProt O75380) | -0.0355 | -0.0716 |
| NEK9_Q8TD19_487_VAGPEVLEPMQLNFFLSNPVEQVSCGDNHVVVLTR (UniProt Q8TD19) | 0.0267 | 0.0157 |
| NCOR2_Q9Y618_866_SECTEEAEEGPAK (UniProt Q9Y618) | -0.0262 | 0.198 |
| NCOA7_Q8NI08_762_STCSYYEDEDEEVLPVLRPHSALLENMHIEQLAR (UniProt Q8NI08) | 0.0534 | 0.178 |

| Target | probe-labelled cysteine peptide fold change (10 µM) | probe-labelled cysteine peptide fold change (50 µM) |
| --- | --- | --- |
| NFXL1_Q6ZNB6_371_TLPCGNHTCEQVCHVGACGECPR (UniProt Q6ZNB6) | -0.0361 | 0.161 |
| NFATC2_Q13469_569_IVSLQTASNPIECSQR (UniProt Q13469) | 0.141 | 0.0885 |
| NECTIN1_Q15223_172_VLVATCTSANGKPPSVVSWETR (UniProt Q15223) | 0.0651 | 0.0867 |
| NELFB_Q8WX92_254+259_AELLMSLHDLDVGEICTVDPCHK (UniProt Q8WX92) | -0.126 | -0.388 |
| NCKIPSD_Q9NZQ3_700_ILNEEETSPQCQMDR (UniProt Q9NZQ3) | 0.144 | -0.0673 |
| NELFCD_Q8IXH7_169_LAEAHPDCLMLNFTVK (UniProt Q8IXH7) | 0.0937 | -0.0159 |
| NFRKB_Q6P4R8_17_MDSLDHMLTDPLELGPCGDGHGTR (UniProt Q6P4R8) | -0.196 | -1.37 |
| NIPSNAP2_O75323_85_LQFHNVKPECLEAYNK (UniProt O75323) | -0.125 | -0.0971 |
| NFATC3_Q12968_537_VLEIPLLPENNMSASIDCAGILK (UniProt Q12968) | -0.0192 | -0.0905 |
| NFX1_Q12986_951_LECDEECSALER (UniProt Q12986) | -0.212 | 0.109 |
| NDUFV1_P49821_385_HESCGQCTPCR (UniProt P49821) | -0.203 | 0.106 |
| NFATC1_O95644_587_TLSLQVASNPIECSQR (UniProt O95644) | 0.128 | 0.223 |
| NIPBL_Q6KC79_1971_ACTQLVDNLVEHILK (UniProt Q6KC79) | -0.0363 | 0.0676 |
| NEK9_Q8TD19_696_LAMTPTERPHGSDICTSWPR (UniProt Q8TD19) | 0.251 | -0.0437 |
| NCL_P19338_543_EALNSCNK (UniProt P19338) | 0.013 | -0.0715 |
| NFKBIA_P25963_167_GNTPLHLACEQGCLASVGVLTQSCTTPHLHSILK (UniProt P25963) | -0.0897 | -0.237 |
| NDUFAB1_O14561_140_LMCPQEIVDYIADK (UniProt O14561) | -0.0757 | -0.184 |
| NDUFA2_O43678_58_ECSDVQPK (UniProt O43678) | -0.154 | -0.288 |
| NEK9_Q8TD19_506_EVYSWGCGEYGR (UniProt Q8TD19) | 0.0396 | 0.00542 |
| NCK2_O43639_343_VQLVDNVYCIGQR (UniProt O43639) | 0.0813 | 0.115 |
| NFS1_Q9Y697_353_HHYPGCINLSFAYVEGESLLMALK (UniProt Q9Y697) | 0.433 | 0.0391 |

Single values from the list:
probe-labelled cysteine peptide fold change (10 µM) with NFIC_P08651_104_KAPGCVLSNPDQK (UniProt P08651) is entered as -0.0478
probe-labelled cysteine peptide fold change (50 µM) with NCOA7_Q8NI08_487_GALDLETCEK (UniProt Q8NI08) is entered as -0.181
probe-labelled cysteine peptide fold change (50 µM) with NIT2_Q9NQR4_44_IVSLPECFNSPYGAK (UniProt Q9NQR4) is entered as 0.0434

Next part:

| Target | probe-labelled cysteine peptide fold change (10 µM) | probe-labelled cysteine peptide fold change (50 µM) |
| --- | --- | --- |
| NDRG1_Q92597_394_SMEVSC (UniProt Q92597) | -0.204 | -0.335 |
| NIPSNAP1_Q9BPW8_106_LHLDEDYPCSLVGNWNTWYGEQDQAVHLWR (UniProt Q9BPW8) | -0.279 | -0.172 |
| NCKAP1L_P55160_942_EVFSSHCPFLMGPIECLK (UniProt P55160) | -0.0872 | 0.14 |
| NDUFA11_Q86Y39_18_QYWDIPDGTDCHRK (UniProt Q86Y39) | -0.0472 | -0.0465 |
| NFKBIE_O00221_438_MLNGCTPLHLAAGR (UniProt O00221) | -0.159 | -0.0659 |
| NID1_P14543_1219_LYGITTALSQCPQGHNYCSVNNGGCTHLCLATPGSR (UniProt P14543) | -0.051 | -0.0572 |
| NEMF_O60524_201_RVLNPLLPYGPALIEHCLLENGFSGNVK (UniProt O60524) | -0.141 | 0.022 |
| NDUFAF3_Q9BU61_150_GIAVEVQDTPNACATFNFLCHEGR (UniProt Q9BU61) | -0.0181 | 0.159 |
| NFATC1_O95644_383_GGFCDQYLAVPQHPYQWAK (UniProt O95644) | -0.188 | -0.156 |
| NCL_P19338_543_EALNSCNKR (UniProt P19338) | -0.0452 | -0.103 |
| NHP2_Q9NX24_18_ADPDGPEAQAEACSGER (UniProt Q9NX24) | -0.227 | -0.308 |
| NIPSNAP2_O75323_93_ICQEVLPK (UniProt O75323) | -0.271 | -0.255 |
| NDRG2_Q9UN36_255_CPVMLVVGDQAPHEDAVVECNSK (UniProt Q9UN36) | -0.0589 | 0.0874 |
| NDUFV1_P49821_125_YLVVNADEGEPGTCK (UniProt P49821) | 0.121 | 0.00708 |
| NCSTN_Q92542_586_EQCQDPSKVPSENK (UniProt Q92542) | -0.276 | -0.219 |
| NIPSNAP3A_Q9UFN0_135_QESEITYLVPWCK (UniProt Q9UFN0) | 0.0894 | -0.0359 |
| NEK7_Q8TDX7_53_AACLLDGVPVALKK (UniProt Q8TDX7) | -0.172 | -0.116 |
| NIT1_Q86X76_292_CSEGPGLCLAR (UniProt Q86X76) | -0.0627 | 0.134 |
| NID1_P14543_403_HQCSVHAECR (UniProt P14543) | -0.00392 | 0.0411 |
